# Laboratory results from patent US20260265789A1, “METHOD FOR IMPROVING 2, 4 DIHYDROXYBUTYRIC ACID PRODUCTION AND YIELD” (ADISSEO FRANCE S.A.S, priority 2023, published 2026).
# For at least one compound, name, drawing or mass did not settle the structure.
# Molecular target: T1, Escherichia coli pyruvate aldolase YfaU (=RhmA, E.C. 4.1.2.53) (Escherichia coli, UniProt P76469)
# T1 construct: coupled LdhA/NADH assay
# T1 sequence (P76469 1-267): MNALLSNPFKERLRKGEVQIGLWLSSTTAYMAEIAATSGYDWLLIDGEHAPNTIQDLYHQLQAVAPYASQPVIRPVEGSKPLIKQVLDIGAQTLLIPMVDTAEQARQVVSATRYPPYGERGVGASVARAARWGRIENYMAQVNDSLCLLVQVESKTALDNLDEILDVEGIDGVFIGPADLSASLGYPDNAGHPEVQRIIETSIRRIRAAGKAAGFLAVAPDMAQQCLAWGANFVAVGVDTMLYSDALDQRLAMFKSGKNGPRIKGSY
# Assay: Kinetic characterization of pyruvate aldolase on OHB (coupled LdhA/NADH assay, 340 nm)
# Type: biochemical
# Details: YfaU versus YagE and YjhH, OHB as substrate
smiles,measurement,value
"O=C(O)C(=O)CCO [OHB, 2-oxo-4-hydroxybutyrate]",affinity compared with YagE and YjhH aldolases,ten times superior
